From patent publication US20220227829A1
These are yes or no findings as the source states them, for the method shown. Some binding calls cover weakened binding; strength is not graded here.

Amino acid sequences for entries named in this document (tags omitted). Residues count along the entry.
UniProt P60568, residues 21-153: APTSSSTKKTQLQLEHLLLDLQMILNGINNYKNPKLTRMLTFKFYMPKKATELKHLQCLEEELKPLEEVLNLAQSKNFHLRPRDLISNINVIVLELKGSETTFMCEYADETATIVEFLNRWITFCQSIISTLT

Molecular target: CD25 protein (from Example 2)
Test: ELISA on coated CD25

binding: binds
Substance: rhIL-2, recombinant human interleukin-2 for injection (Quanqi) (from UniProt P60568 21-153) (ligand)
